Substitutions are numbered along the chain they refer to. Results are given in words; binding and its absence hold for the method and conditions named. In cells and extracts the contact can be indirect. Some results given as binding are weak or reduced against the parent protein; the word gives no strength. Sequences can lack the tags named with a protein.
What was measured:
Assay in all cases: pull-down; GST-PIASγ fusion proteins or GST alone (1.5 µg) bound to glutathione-agarose, incubated with whole extracts of COS-1 cells transfected with Myc-Nurr1 363-598 for 1 h at 4°C; extensive washing; immunoblot with anti-Myc (9E10); only the target purified
[1] = target: T1, GST-PIASγ_(1–158) (human) (UniProt Q8N2W9)
T1 sequence: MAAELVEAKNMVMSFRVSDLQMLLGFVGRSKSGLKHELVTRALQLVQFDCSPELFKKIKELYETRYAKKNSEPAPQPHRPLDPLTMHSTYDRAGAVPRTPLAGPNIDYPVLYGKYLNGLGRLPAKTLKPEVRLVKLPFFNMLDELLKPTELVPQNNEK

By UniProt entry, the sequences of proteins in these tests, tags left out. Residues count along the entry.
UniProt Q07917, residues 363-598: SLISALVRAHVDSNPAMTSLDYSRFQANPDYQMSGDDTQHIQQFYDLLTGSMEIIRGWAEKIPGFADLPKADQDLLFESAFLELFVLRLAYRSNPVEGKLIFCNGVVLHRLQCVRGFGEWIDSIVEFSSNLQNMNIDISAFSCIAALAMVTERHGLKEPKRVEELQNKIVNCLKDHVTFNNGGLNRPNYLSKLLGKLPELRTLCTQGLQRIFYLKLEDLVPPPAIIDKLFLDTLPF

GST-PIASγmut1 (human) = target: T2, GST-PIASγmut1 (human) (UniProt Q8N2W9)
T2 sequence: T1 sequence with L20A, L23A, L24A

GST-PIASγmut2 (human) = target: T3, GST-PIASγmut2 (human) (UniProt Q8N2W9)
T3 sequence: T1 sequence with L142A, L145A, L146A

- binding [1]: binds
- binding (GST-PIASγmut2 (human)): binds
Substance: Myc-Nurr1_(363–598) (from UniProt Q07917 363-598) (domain or fragment)
- binding (GST-PIASγmut1 (human)): no binding (tested: 1.5 µg GST fusion on beads)

— publication PMC3554661
